Data reported in publication PMC9943647, “Structures of pMV158 replication initiator RepB with and without DNA reveal a flexible dual-function protein” (Nucleic Acids Research, 2023).
These are yes or no findings as the source states them, for the method shown. Tags and fused reporters may be left off the sequences shown.

Biological target: His-OBD, His-tagged N-terminal origin binding domain of RepB (pMV158) (streptococcal plasmid pMV158) (UniProt P13921)
Assay: crystal structure; His-OBD with 23-bp dsDNA 23AB (DDRI and DDRII) in a 2:1 ratio; sitting drop, 50 mM Tris-HCl pH 8.0, 50 mM MgCl2, 23% PEG3350; space group P21, 3.0 A; two OBDs on each DNA; both purified

B1: His-OBD, His-tagged N-terminal origin binding domain of RepB (pMV158) (domain or fragment, UniProt P13921 1-132)
chain: MAKEKARYFTFLLYPESIPSDWELKLETLGVPMAISPLHDKDKSSIKGQKYKKAHYHVLYIAKNPVTADSVRKKIKLLLGEKSLAMVQVVLNVENMYLYLTHESKDAIAKKKHVYDKADIKLINNFDIDRYV
In the case of B1, the binding is reported as “no binding”.
